Experimental data as given in paper PMC3701701.
No constants are given. Whether binding was seen depends on the method and setting. For part of these data: Binding calls can cover weak binding; strength is not graded here. Where a sequence is shown, tags or fusion partners need not be part of it.

Protein sequences, listed by entry. Tags and fused reporters are not part of them. Lines headed by an entry give the natural chain unless they say otherwise; changes in a name come on top.
UniProt P40568: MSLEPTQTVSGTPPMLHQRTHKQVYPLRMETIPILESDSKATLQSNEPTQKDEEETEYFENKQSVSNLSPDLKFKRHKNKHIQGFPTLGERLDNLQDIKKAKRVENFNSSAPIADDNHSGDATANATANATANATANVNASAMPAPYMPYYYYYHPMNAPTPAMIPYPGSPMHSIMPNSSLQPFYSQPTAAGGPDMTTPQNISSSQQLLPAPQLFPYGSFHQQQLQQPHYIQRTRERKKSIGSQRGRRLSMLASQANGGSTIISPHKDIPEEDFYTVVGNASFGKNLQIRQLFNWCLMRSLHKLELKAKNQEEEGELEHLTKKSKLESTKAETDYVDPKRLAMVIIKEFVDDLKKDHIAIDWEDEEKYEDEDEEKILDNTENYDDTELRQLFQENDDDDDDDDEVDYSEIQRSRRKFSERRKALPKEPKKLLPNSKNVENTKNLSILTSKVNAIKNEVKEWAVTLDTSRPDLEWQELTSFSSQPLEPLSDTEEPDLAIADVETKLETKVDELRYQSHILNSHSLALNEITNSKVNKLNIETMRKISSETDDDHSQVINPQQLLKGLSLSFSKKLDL

Key:
Test in all cases: two-hybrid; Dsn1 and its variants fused to Gal4-DBD (pGBKT7), Csm1 fused to Gal4-AD (pGADT7) in AH109; growth on SD-LEU-TRP-ADE-HIS plates at 30°C for 2-3 days
[1] = target: Dsn1 (1-220B1A, Box1 alanine substituted) fused to Gal4-DBD (S. cerevisiae) (UniProt P40568)
[2] = target: Dsn1 (1-220B2A, Box 2 alanine substituted) fused to Gal4-DBD (S. cerevisiae) (UniProt P40568)
[3] = target: Dsn1 (1-220B3A, Box 3 alanine substituted) fused to Gal4-DBD (S. cerevisiae) (UniProt P40568)

binding [1]: binds | binding [2]: no binding | binding [3]: no binding
B1: Csm1 fused to Gal4-AD (protein, UniProt P25651 1-190)
chain: MDPLTVYKNSVKQQIDSADLLVANLVNENFVLSEKLDTKATEIKQLQKQIDSLNAQVKELKTQTSQQAENSEVIKDLYEYLCNVRVHKSYEDDSGLWFDISQGTHSGGSSDDYSIMDYKLGFVKGQAQVTEVIYAPVLKQRSTEELYSLQSKLPEYLFETLSFPLSSLNQFYNKIAKSLNKKREKKDETE
